Measurements as given in publication PMC5561223.

Test system: H6-YebC (Lactobacillus delbrueckii subsp. lactis CRL 581)
Assay: EMSA
Conditions: 25 mM Tris-HCl pH 8, 50 mM KCl, 0.5 mM EDTA, 0.01% BSA, 1 ug poly(dI-dC), 10% glycerol, 50 ng DNA in 20 ul, 30 C 30 min, 6% PAGE in TAE, recombinant protein, protein details: N-terminal His6 (pRSETA), label: none (ethidium bromide stain)

Sequence: ACTTGGAACTTCAAGGACACTTACATCAAGTAATCAAGCAAAAAGAAGAGGCTCAGCCTCTTCTTTTTTGTGCTATAAGTATTTTTAGATTGACTTGTATCTGTTTTTGGATATTTAGATTGTTGAAATAAAATAGCACTTTTTCTTAAAAATACTTGAAGAAGCATAAACGAAGAACTATAATGAAAATATCATTAAAGGCTGCTGTAGAGCTTTAATTTGTGTAGGCGCTGGAACAGTCAGTAAAAGCAAGGAGAAAAAGATGAAATTATCTAAGACTTTAAGCCTGGGAGCCAC (double strand) [PoptS]
- binding result (1.6 uM YebC): binds

Sequence: AGAGTGATTGATATCGCGGCAACTAAATACCGCCGCTAAAGCTGCCGGAAGGCGGCTTTTTTGCTTGGCGTCTTGTTTGCCAGGGCTGGCGAAGATTGATAGAATTTTATTTAGGTGGTTAGTTGCTTTTTGTAACTAATTTCAAAAAACAGCAGGCATTGAAAATAAACATTAGGAGAAAAAGATGGACTTAAACTTTAAAGAACTGGCGGAAGCCAA (double strand) [PpepV]
- binding result (1.6 uM YebC): no binding

Sequence: AGCTGAGTCAGAGCATGCCGGGGAAATCTGGTACAACATGATCAAAGAGATAGAAGGTTAGAAAGCGGTCAGCAGGTGCTGGCTGCTTTTTCTTTTGCTTTATAAGTTAAACATTTTAATGTAAATCTAACTTAAAAAACTATAGCTAAAATTTGTCAATATTCTTTTCTTAAATGAAAAAGCTGATAGAACTATGTTTAAATAGGGACGGTGTTATTATAATCAAAAAGGTAACACTATACCACGACTTTAGCGAATCAACTTTAAGTTAGTATTTTGTAGATTTTTAACTTCATAGCACGTTATTTTCTCGCGTATTGCTGAAATAATGTGTTTTTTGTTTTTTGGCGTTCAGAAGTTACTTTTCCACTGTTTGATTTAAAATTCTGCTAAAAAACACTTAACTTTAATTTAAACTATGGTATGATTATGAAATGTTAGTGAGCTAAAGCTGTGTGATGAAAGGCTTGC (double strand) [PprtL]
- binding result (1.6 uM YebC, 5 mM each Leu, Val, Ile): binds
- binding result (1.6 uM YebC, 10 mM Ile): binds
- binding result (1.6 uM YebC, 10 mM Leu): binds
- binding result (1.6 uM YebC, 10 mM Val): binds
- binding result (1.6 uM YebC, 10 mM each Leu, Val, Ile): binds
- binding result (shift at 1.6 uM YebC (0-1.6 uM titrated)): binds

Sequence: GAGCATCAACTATGTCGGCCAGGCCCTGCAAAAGGCTGGCGACGCCCGGCAAAGAGAAAACTAAAAACAATTAGCATTAAATTAAAATTATCATTGACTTTTAAAATTAAACTGCTAAAATAAAAAGCATGAAAGATAAAATTTGTGAATCGCTATCTCGATAACTATTCATATGCTGTGTGTTTTATCTTTTGAATATATTGTGTGGAGGTAAATTAAATTATGAAGAGAAGAATGCTCGGAACATTTGGAGTACTTCTGGCCGGGGCAGCTTTGCTGGCCGGTTGCGGCAAGAGCAGCTCCAGCTCCAGCAACAGCGGGGCTAAGGATC (double strand) [PoppA1]
- binding result (1.6 uM YebC): binds

Sequence: GCAAAAGGACCAGCTCCGAAAAAGAGCCGGTCCTTTTTTCAACCGGTATAATCTAGCTATCCCCTATTTTGTATGTAAAAATCTTTCTCATTTTCCGATAATTTCTTGCCCAGCTCCTTCTTAATAAAGTAGTTTCTCTTTTCGTATAGGATTTTAATTTAACGGTGAGAGGCTTATGATTTCTTTTGGCAAGCGCTAACAAGCACTCCTGTGTGATTGATAGGATTATATTTGATAGGGGGAAATATCATGCGTAAGTTTAT (double strand) [PpepD]
- binding result (1.6 uM YebC): no binding

Construct, isoform or probe ends are uncertain for at least one entry. Negatives hold for the conditions tested.
